The test system of the assay is CD2F1 mice, L1210 leukemia ip, survival T/C. Nature of the assay: NCI In Vivo Anticancer Drug Screen. Data for tumor model L1210 Leukemia (intraperitoneal) in CD2F1 (CDF1) mice. The note with it: higher T/C = longer survival. An outline of the steps:
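Transplantable tumor in mice; compound-treated vs vehicle-treated groups. Read-out = treated/control ratio of the measured endpoint.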

[1] abbreviates: T/C endpoint: mean survival time, dose: 12.5 mg/kg/injection, schedule: Q01DX009 (ip), vehicle: saline with Tween-80.
The mark [2] stands for this setting: T/C endpoint: mean survival time, dose: 25.0 mg/kg/injection, schedule: Q01DX009 (ip), vehicle: saline with Tween-80.
Setting [3] is: T/C endpoint: mean survival time, dose: 50.0 mg/kg/injection, schedule: Q01DX009 (ip), vehicle: saline with Tween-80.
Setting [4] is: T/C endpoint: mean survival time, dose: 400.0 mg/kg/injection, schedule: Q04DX003 (ip), vehicle: saline with Tween-80.
Setting [5] is: T/C endpoint: mean survival time, dose: 400.0 mg/kg/injection, schedule: Q04DX003 (ip), vehicle: saline.
Where [6] appears, read: T/C endpoint: mean survival time, dose: 400.0 mg/kg/injection, schedule: Q01DX009 (ip), vehicle: saline with Tween-80.
Setting [7] is: T/C endpoint: mean survival time, dose: 200.0 mg/kg/injection, schedule: Q04DX003 (ip), vehicle: saline with Tween-80.
The mark [8] stands for this setting: T/C endpoint: mean survival time, dose: 400.0 mg/kg/injection, schedule: Q01DX001 (ip), vehicle: saline with Tween-80.
Setting [9] is: T/C endpoint: mean survival time, dose: 400.0 mg/kg/injection, schedule: Q04DX002 (ip), vehicle: saline with Tween-80.

The list does not hold the whole screen: it gathers tests that were run many times, whatever their T/C, doses with no T/C, and many T/C values between a quarter and a half above the control. Further doses and runs are listed elsewhere. T/C: endpoint of the treated group in % of that of the vehicle group. Some doses have a count of surviving animals in place of a T/C: the source files T/C as zero there, which appears to mark a toxic dose or a test without result, not a measured value. Some survivor counts are full or nearly so, which does not show that the dose was tolerated: survival well below the control is almost never listed, so the zero probably covers shortened survival too. Survivors were counted at the toxicity check, usually on the fifth day, unless a day is given; later deaths do not show. Schedule codes are those of the source, taken here to give the interval after Q, in days (D) or hours (H), and the number of doses after X. Some entries hold several experiments; the values are given in rising order. Where survival is the endpoint, the PubChem record calls one and a half times the control and up active, and a quarter to a half above the control has no call in these data; cut-offs in other NCI protocols can differ. Some T/C values carry the count of animals alive at the toxicity check (mostly the fifth day); without a count, all were alive then.

For `COc1ccc(OC)c(/C=C(\C#N)c2ccc([N+](=O)[O-])cc2)c1`, the T/C reads like this: under setting [1], 126 % of control; under setting [2], 143 % of control; under setting [3], 135 % of control. The survivor count was 6 of 6 (T/C endpoint: mean survival time, dose: 37.5 mg/kg/injection, schedule: Q01DX009 (ip), vehicle: saline with Tween-80); 6 of 6 under setting [3]; 6 of 6 under setting [4].

Regarding `O=C1C(=O)C(Br)=C(Br)C(Br)=C1Br`, under setting [4], the survivor count is 6 of 6.

In the case of `COc1ccc2c(c1)CCN=C2CCN1C(=O)CCC1=O`, the survivor count under setting [5] is on record as 4 of 6.

For `CN=C(N)N/N=C(\C)c1ccc2sc3ccc(/C(C)=N/NC(N)=NC)cc3c2c1`, the T/C is 132 % of control (T/C endpoint: median survival time, dose: 50.0 mg/kg/injection, schedule: Q01DX009 (ip), vehicle: saline with Tween-80); 132 % of control (T/C endpoint: median survival time, dose: 100.0 mg/kg/injection, schedule: Q01DX009 (ip), vehicle: saline with Tween-80); 132 % of control (T/C endpoint: median survival time, dose: 200.0 mg/kg/injection, schedule: Q01DX009 (ip), vehicle: saline with Tween-80).

On to `CCOc1cc(C=Nc2cc(Br)c(O)c(Br)c2)ccc1N(CCCl)CCCl`, for which the T/C (T/C endpoint: mean survival time, dose: 100.0 mg/kg/injection, schedule: Q01DX001 (ip), vehicle: carboxymethylcellulose (CMC)) is 132 % of control. In addition, the survivor count is listed as 2 of 4 (T/C endpoint: mean survival time, dose: 200.0 mg/kg/injection, schedule: Q01DX001 (ip), vehicle: carboxymethylcellulose (CMC)) and 0 of 4 (T/C endpoint: mean survival time, dose: 400.0 mg/kg/injection, schedule: Q01DX001 (ip), vehicle: carboxymethylcellulose (CMC)).

Turning to `Cn1cnc([N+](=O)[O-])c1[Se]c1nc(N)nc2c1ncn2C1OC(CO)C(O)C1O` (stereo not drawn), the T/C by setting is: (T/C endpoint: mean survival time, dose: 4.0 mg/kg/injection, schedule: Q01DX009 (ip), vehicle: distilled water + Tween-80) 126 % of control; (T/C endpoint: mean survival time, dose: 12.5 mg/kg/injection, schedule: Q01DX005 (ip), vehicle: saline) 127 % of control; (T/C endpoint: mean survival time, dose: 16.0 mg/kg/injection, schedule: Q01DX009 (ip), vehicle: distilled water + Tween-80) 133 and 148 % of control; (T/C endpoint: mean survival time, dose: 25.0 mg/kg/injection, schedule: Q01DX005 (ip), vehicle: saline) 131 % of control; (T/C endpoint: mean survival time, dose: 50.0 mg/kg/injection, schedule: Q01DX005 (ip), vehicle: saline) 144 % of control; (T/C endpoint: mean survival time, dose: 64.0 mg/kg/injection, schedule: Q01DX009 (ip), vehicle: distilled water + Tween-80) 130 % of control [4 of 6 alive]. Besides, the survivor count (T/C endpoint: mean survival time, dose: 128.0 mg/kg/injection, schedule: Q01DX009 (ip), vehicle: distilled water + Tween-80) is given as 2 of 6.

Take `CCN(CC)CCN1CC2C3C=CC(C3)C2C1` (stereo not drawn): the survivor count by setting is: (T/C endpoint: mean survival time, dose: 200.0 mg/kg/injection, schedule: Q01DX009 (ip), vehicle: saline with Tween-80) 0 of 6; under setting [6], 0 of 6.

Consider `O=C(C#Cc1ccccc1)c1ccccc1`, for which the survivor count (T/C endpoint: mean survival time, dose: 50.0 mg/kg/injection, schedule: Q01DX009 (ip), vehicle: Klucel (hydroxypropylcellulose) (HPC)) is given as 2 of 6; the survivor count (T/C endpoint: mean survival time, dose: 100.0 mg/kg/injection, schedule: Q01DX009 (ip), vehicle: Klucel (hydroxypropylcellulose) (HPC)) was 0 of 6 and 4 of 6.

Regarding `COc1cc(OC)c(/C=C/c2ccc3ccccc3[n+]2C)c(OC)c1`, the survivor count by setting is: (T/C endpoint: mean survival time, dose: 100.0 mg/kg/injection, schedule: Q04DX003 (ip), vehicle: saline with Tween-80) 0 of 6; under setting [7], 0 of 6; under setting [4], 0 of 6.

Take `N#C/C=C1\NC(=O)CS1`: the survivor count under setting [6] was 0 of 6.

For the compound `COc1cccc2c1C(=O)c1c(O)c3c(c(O)c1C2=O)C[C@H](O)C[C@@H]3OC1CC(N)C(O)C(C)O1` (stereo partly drawn), the T/C was 135 % of control (T/C endpoint: mean survival time, dose: 6.0 mg/kg/injection, schedule: Q01DX009 (ip), vehicle: water) and 138 % of control (T/C endpoint: mean survival time, dose: 24.0 mg/kg/injection, schedule: Q01DX009 (ip), vehicle: saline). Further, for the setting “T/C endpoint: mean survival time, dose: 48.0 mg/kg/injection, schedule: Q01DX009 (ip), vehicle: water”, the survivor count is 3 of 6.

Regarding `COc1ccc(-c2nc3ccccc3nc2-c2ccc(OC)cc2)cc1`, the survivor count under setting [4] is listed as 3 of 3.

On to `S=C=Nc1cccc(Cl)c1`, for which the survivor count is 4 of 6 (T/C endpoint: mean survival time, dose: 150.0 mg/kg/injection, schedule: Q01DX009 (ip), vehicle: saline with Tween-80) and 1 of 6 (T/C endpoint: mean survival time, dose: 300.0 mg/kg/injection, schedule: Q01DX009 (ip), vehicle: saline with Tween-80).

For `CCCCCCCCCCCCOP(=S)(S)OCCCCCCCCCCCC.[Cd]`, the survivor count is recorded as 6 of 6 (T/C endpoint: mean survival time, dose: 6.25 mg/kg/injection, schedule: Q01DX009 (ip), vehicle: saline with Tween-80); 6 of 6 under setting [1]; 5 of 6 under setting [2].

On to `O=C1OC(c2ccc(Cl)cc2)=N/C1=C\c1ccccc1`, for which the survivor count (T/C endpoint: mean survival time, dose: 400.0 mg/kg/injection, schedule: Q01DX009 (ip), vehicle: acetone) was 2 of 6.

For the compound `CCCCN(Cc1ccccc1)CC(O)C[NH-].CS(C)=O.[Cl-].[Cl-].[Pt+4]` (stereo not drawn), the survivor count runs as follows: (T/C endpoint: median survival time, dose: 100.0 mg/kg/injection, schedule: Q04DX003 (ip), vehicle: saline) 5 of 6; (T/C endpoint: median survival time, dose: 200.0 mg/kg/injection, schedule: Q04DX003 (ip), vehicle: saline) 2 of 6.

Regarding `[Br][Pt+2][Br].[NH-]CC(=O)O.[NH-]CC(=O)O`, the survivor count by setting is: (T/C endpoint: mean survival time, dose: 200.0 mg/kg/injection, schedule: Q01DX009 (ip), vehicle: Klucel (hydroxypropylcellulose) (HPC)) 5 of 5; (T/C endpoint: mean survival time, dose: 400.0 mg/kg/injection, schedule: Q04DX003 (ip), vehicle: Klucel (hydroxypropylcellulose) (HPC)) 2 of 6.

Take `Cc1ccc(S(=O)(=O)NC(=S)c2ccccc2)cc1`: under setting [8], the survivor count was 0 of 3.

Take `Cc1cc(N2CCCN(C)CC2)nc(/N=C(\N)Nc2ccc(Cl)c(Cl)c2)n1`: the survivor count under setting [7] is reported as 3 of 6 and the survivor count under setting [4] was 0 of 6.

In the case of `O=C(O)c1cc([N+](=O)[O-])cc([N+](=O)[O-])c1` (tested in a mixture with another compound), the survivor count under setting [9] is given as 0 of 3.

On to `O=P1(NCCCl)OCCCN1CCCl` (stereo not drawn), for which the T/C was 127 % of control (T/C endpoint: mean survival time, dose: 50.0 mg/kg/injection, schedule: Q01DX001 (ip), vehicle: DMSO) and 128 % of control (T/C endpoint: mean survival time, dose: 100.0 mg/kg/injection, schedule: Q01DX001 (ip), vehicle: saline). In addition, under “T/C endpoint: median survival time, dose: 500.0 mg/kg/injection, schedule: Q01DX001 (ip), vehicle: water”, the survivor count is recorded as 2 of 8.

As for `Nc1nc(N)c2[nH]c(-c3ccccc3)nc2n1`, under “T/C endpoint: mean survival time, dose: 100.0 mg/kg/injection, schedule: Q01DX005 (ip), vehicle: saline with Tween-80”, the survivor count is given as 5 of 6.

Regarding `CC([NH-])CC(C)[NH-].O=C(O)C(=O)O.[Pt+2]` (stereo not drawn), the T/C was 133 % of control (T/C endpoint: mean survival time, dose: 6.25 mg/kg/injection, schedule: Q04DX003 (ip), vehicle: saline with Tween-80) and 130 % of control (T/C endpoint: mean survival time, dose: 6.25 mg/kg/injection, schedule: Q04DX003 (ip), vehicle: saline).

`CC12CCCCC1=CC(=O)CC2` (stereo not drawn): the survivor count under setting [6] is recorded as 3 of 6.

Regarding `C[n+]1ccc(Nc2ccc(NC(=O)c3ccc(Nc4cc[n+](C)c5ccc([N+](=O)[O-])cc45)cc3)cc2)cc1`, the T/C by setting is: (T/C endpoint: mean survival time, dose: 8.0 mg/kg/injection, schedule: Q01DX009 (ip), vehicle: water) 141 % of control; under setting [5], 148 % of control.

With `CCc1c(C)[nH]c2ccc([N+](=O)[O-])cc12`, under setting [4], the survivor count is on record as 1 of 6.

For the compound `O=[N+]([O-])c1ccc(OC(=S)c2ccccc2)cc1`, the survivor count under setting [9] was 0 of 3.

Consider `C1CCC(NC2=NCCO2)CC1`, for which the survivor count is, setting by setting: under setting [7], 0 of 6; under setting [4], 0 of 6.

On to `CN(C)c1ccc(/C=N/N=C(/N)N[N+](=O)[O-])cc1`, for which, under “T/C endpoint: mean survival time, dose: 400.0 mg/kg/injection, schedule: Q01DX001 (ip), vehicle: saline”, the survivor count was 0 of 3.

Turning to `CCOC(=O)C(C)(C)CN1COCC1(C)C`, the survivor count under setting [8] was 3 of 6.

`CC[CH2][Sn]([CH2]CC)([CH2]CCC#N)[O]C(C)=O`: the survivor count (T/C endpoint: mean survival time, dose: 0.78 mg/kg/injection, schedule: Q01DX009 (ip), vehicle: saline) is on record as 2 of 3.
